Laboratory results: PMC6459869
Results are given in words; binding and its absence hold for the method and conditions named. In cells and extracts the contact can be indirect. Some entries that bind do so weakly or less than the wild type.

Target: EZH2 (wild type, endogenous in WT mouse ESCs) (mouse (endogenous in E14TG2a ESCs)), Q61188
Experiment: co-IP; immunoprecipitation of EZH2 from 1 mg total protein extract of mouse ESC lines with homemade anti-EZH2 (AC22) cross-linked sepharose beads, 3 to 4 h at 4 °C; S300 buffer (20 mM Tris-HCl pH 8.0, 300 mM NaCl, 10% glycerol, 0.2% NP-40), 5 washes; western blot
Details: remark: other sources report otherwise

binding: binds
B1: SUZ12, Q80U70 1-741 (protein)
chain: MAPQKHGGGGGGGSGPSAGSGGGGFGGSAAAVAAAASGGKSGGGGCGGGGSYSASSSSAAAAAAAAGAAVLPVKKPKMEHVQADHELFLQAFEKPTQIYRFLRTRNLIAPIFLHRTLTYMSHRNSRTSIKRKTFKVDDMLSKVEKMKGEQESHSLSAHLQLTFTGFFHKNDKPSQNSENEQNSVTLEVLLVKVCHKKRKDVSCPIRQVPTGKKQVPLNPDLNQTKPGNFPSLAVSSNEFEPSNSHMVKSYSLLFRVTRPGRREFNGMINGETNENIDVSEELPARRKRNREDGEKTFVAQMTVFDKNRRLQLLDGEYEVAMQEMEECPISKKRATWETILDGKRLPPFETFSQGPTLQFTLRWTGETNDKSTAPVAKPLATRNSESLHQENKPGSVKPAQTIAVKETLTTELQTRKEKDNSNESRQKLRIFYQFLYNNNTRQQTEARDDLHCPWCTLNCRKLYSLLKHLKLCHSRFIFNYVYHPKGARIDVSINECYDGSYAGNPQDIHRQPGFAFSRNGPVKRTPITHILVCRPKRTKASMSEFLESEDGEVEQQRTYSSGHNRLYFHSDTCLPLRPQEMEVDSEDEKDPEWLREKTITQIEEFSDVNEGEKEVMKLWNLHVMKHGFIADNQMNHACMLFVENYGQKIIKKNLCRNFMLHLVSMHDFNLISIMSIDKAVTKLREMQQKLEKGESATPSNEEIAEEQNGTANGFSETNSKEKALETDGVSGVPKQSKKQKL
